Experimental data: PMC10381965
No constants are given. Whether binding was seen depends on the method and setting. Some entries that bind do so weakly or less than the wild type.

Target: CENP-I (CTF3) (S. cerevisiae) (UniProt Q12748)
Assay: cryo-EM structure; IK^C0N3: CBF1:CCAN^ΔC:C0N3-CENP-A^Nuc:CBF3^Core:scFv, components at 2 μM, scFv 4 μM, BS3 cross-linked; multibody refinement 3.7 to 3.8 Å; both purified

CBF3^Core complex (Cep3, Ctf13, and Skp1) (from UniProt P40969 1-608; P35203 1-478; P52286 1-194)
binding: binds
